Laboratory results published in PMC13070255.

By UniProt entry, the sequences of proteins in these tests, tags left out. Where a name states a change or a piece, a line headed by the entry shows the natural chain unless it says otherwise.
UniProt Q9BRR9: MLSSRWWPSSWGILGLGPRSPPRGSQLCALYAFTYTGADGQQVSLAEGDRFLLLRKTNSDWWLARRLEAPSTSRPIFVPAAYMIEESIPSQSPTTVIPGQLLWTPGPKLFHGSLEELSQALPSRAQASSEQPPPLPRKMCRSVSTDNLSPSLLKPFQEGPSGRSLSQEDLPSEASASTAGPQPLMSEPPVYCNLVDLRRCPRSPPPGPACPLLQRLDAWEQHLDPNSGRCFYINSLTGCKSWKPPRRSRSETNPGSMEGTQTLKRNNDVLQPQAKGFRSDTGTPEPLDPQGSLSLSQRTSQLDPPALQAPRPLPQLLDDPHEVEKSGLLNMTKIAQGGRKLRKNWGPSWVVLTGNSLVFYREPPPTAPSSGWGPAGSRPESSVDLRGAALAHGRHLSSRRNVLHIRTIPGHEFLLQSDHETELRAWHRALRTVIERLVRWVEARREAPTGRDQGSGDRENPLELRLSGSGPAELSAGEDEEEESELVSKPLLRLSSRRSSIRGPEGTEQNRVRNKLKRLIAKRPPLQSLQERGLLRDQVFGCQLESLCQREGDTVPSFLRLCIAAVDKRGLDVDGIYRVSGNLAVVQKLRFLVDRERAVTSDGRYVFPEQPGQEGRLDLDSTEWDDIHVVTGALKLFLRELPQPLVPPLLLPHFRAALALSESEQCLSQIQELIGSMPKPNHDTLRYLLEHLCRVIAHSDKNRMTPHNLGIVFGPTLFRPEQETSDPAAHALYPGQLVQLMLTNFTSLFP
UniProt O95819: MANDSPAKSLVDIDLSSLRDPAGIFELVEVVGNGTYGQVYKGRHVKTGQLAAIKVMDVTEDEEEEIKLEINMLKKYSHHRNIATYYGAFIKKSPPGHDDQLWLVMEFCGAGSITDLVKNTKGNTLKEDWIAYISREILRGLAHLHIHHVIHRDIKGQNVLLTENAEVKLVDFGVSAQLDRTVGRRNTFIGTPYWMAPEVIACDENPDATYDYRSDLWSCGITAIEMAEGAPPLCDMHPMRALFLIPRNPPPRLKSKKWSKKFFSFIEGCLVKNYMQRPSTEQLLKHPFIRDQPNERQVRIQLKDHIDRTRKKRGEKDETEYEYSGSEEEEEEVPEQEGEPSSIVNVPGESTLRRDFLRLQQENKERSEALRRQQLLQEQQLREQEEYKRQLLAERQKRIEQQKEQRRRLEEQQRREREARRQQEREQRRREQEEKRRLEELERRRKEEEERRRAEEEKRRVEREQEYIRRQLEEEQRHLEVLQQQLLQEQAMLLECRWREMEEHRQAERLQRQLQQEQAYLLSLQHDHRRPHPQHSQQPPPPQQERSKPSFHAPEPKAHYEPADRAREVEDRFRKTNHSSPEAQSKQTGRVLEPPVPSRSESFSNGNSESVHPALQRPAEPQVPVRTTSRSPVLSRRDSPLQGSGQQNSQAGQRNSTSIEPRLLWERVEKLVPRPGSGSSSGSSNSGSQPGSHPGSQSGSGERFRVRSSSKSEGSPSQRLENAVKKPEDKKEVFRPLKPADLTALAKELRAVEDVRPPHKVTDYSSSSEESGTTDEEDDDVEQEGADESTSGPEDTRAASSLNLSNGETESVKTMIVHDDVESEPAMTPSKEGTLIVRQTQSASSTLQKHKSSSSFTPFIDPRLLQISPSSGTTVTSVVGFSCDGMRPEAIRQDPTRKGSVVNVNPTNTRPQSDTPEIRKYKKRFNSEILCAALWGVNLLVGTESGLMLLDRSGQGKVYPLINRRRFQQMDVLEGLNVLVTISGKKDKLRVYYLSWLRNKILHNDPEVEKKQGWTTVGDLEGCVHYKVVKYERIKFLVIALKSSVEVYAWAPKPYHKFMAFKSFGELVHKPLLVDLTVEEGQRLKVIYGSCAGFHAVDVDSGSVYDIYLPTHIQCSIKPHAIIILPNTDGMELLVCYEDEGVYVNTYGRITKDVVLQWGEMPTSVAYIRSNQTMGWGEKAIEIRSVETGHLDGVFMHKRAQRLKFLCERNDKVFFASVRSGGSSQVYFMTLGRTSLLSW
UniProt P46940: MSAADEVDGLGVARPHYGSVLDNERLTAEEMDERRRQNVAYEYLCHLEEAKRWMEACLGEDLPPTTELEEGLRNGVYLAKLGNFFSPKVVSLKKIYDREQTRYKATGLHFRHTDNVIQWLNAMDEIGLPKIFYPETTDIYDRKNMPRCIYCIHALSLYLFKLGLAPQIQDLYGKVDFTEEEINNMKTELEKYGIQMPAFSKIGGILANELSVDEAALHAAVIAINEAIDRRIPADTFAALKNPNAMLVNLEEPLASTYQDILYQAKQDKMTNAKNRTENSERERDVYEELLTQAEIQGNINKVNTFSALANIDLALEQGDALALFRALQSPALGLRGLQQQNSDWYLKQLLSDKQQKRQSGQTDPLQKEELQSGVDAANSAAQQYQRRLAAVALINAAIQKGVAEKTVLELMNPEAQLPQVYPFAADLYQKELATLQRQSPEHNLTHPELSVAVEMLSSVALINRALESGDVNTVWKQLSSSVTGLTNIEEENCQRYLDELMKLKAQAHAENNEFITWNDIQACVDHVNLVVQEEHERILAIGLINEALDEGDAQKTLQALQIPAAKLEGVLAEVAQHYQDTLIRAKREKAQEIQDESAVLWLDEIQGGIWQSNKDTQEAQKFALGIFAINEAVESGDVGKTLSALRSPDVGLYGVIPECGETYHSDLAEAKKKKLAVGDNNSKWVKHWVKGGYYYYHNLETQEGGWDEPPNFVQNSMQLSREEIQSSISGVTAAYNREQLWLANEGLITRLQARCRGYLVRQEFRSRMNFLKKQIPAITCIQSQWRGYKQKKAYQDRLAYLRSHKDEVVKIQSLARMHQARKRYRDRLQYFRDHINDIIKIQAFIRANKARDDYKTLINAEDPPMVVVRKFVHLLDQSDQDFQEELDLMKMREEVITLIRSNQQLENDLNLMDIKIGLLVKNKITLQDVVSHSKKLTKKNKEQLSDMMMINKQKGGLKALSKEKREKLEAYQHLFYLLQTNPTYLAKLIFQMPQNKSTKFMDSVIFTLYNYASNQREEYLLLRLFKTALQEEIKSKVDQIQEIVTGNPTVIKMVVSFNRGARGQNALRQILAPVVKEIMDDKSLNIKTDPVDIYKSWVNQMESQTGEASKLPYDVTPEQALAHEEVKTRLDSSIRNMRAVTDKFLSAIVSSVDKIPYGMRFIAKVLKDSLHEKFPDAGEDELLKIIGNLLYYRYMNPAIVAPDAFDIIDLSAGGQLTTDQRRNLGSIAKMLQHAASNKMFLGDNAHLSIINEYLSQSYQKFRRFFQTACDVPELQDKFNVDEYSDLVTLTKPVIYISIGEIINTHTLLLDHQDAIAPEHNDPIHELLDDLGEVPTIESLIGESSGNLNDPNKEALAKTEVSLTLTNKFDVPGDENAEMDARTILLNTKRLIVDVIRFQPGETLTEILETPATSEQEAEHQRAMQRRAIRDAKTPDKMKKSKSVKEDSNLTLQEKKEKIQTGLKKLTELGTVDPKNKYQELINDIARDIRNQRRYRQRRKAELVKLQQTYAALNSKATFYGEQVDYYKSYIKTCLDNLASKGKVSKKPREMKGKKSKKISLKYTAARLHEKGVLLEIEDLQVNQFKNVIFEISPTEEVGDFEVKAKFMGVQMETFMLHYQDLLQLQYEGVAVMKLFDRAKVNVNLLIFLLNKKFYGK
UniProt P62993: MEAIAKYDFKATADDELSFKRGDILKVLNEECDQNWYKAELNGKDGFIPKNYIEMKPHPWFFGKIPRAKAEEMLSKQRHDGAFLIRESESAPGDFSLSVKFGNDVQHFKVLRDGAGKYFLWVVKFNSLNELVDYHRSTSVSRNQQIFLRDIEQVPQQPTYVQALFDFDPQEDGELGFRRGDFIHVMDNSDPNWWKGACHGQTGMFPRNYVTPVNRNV
UniProt Q99570: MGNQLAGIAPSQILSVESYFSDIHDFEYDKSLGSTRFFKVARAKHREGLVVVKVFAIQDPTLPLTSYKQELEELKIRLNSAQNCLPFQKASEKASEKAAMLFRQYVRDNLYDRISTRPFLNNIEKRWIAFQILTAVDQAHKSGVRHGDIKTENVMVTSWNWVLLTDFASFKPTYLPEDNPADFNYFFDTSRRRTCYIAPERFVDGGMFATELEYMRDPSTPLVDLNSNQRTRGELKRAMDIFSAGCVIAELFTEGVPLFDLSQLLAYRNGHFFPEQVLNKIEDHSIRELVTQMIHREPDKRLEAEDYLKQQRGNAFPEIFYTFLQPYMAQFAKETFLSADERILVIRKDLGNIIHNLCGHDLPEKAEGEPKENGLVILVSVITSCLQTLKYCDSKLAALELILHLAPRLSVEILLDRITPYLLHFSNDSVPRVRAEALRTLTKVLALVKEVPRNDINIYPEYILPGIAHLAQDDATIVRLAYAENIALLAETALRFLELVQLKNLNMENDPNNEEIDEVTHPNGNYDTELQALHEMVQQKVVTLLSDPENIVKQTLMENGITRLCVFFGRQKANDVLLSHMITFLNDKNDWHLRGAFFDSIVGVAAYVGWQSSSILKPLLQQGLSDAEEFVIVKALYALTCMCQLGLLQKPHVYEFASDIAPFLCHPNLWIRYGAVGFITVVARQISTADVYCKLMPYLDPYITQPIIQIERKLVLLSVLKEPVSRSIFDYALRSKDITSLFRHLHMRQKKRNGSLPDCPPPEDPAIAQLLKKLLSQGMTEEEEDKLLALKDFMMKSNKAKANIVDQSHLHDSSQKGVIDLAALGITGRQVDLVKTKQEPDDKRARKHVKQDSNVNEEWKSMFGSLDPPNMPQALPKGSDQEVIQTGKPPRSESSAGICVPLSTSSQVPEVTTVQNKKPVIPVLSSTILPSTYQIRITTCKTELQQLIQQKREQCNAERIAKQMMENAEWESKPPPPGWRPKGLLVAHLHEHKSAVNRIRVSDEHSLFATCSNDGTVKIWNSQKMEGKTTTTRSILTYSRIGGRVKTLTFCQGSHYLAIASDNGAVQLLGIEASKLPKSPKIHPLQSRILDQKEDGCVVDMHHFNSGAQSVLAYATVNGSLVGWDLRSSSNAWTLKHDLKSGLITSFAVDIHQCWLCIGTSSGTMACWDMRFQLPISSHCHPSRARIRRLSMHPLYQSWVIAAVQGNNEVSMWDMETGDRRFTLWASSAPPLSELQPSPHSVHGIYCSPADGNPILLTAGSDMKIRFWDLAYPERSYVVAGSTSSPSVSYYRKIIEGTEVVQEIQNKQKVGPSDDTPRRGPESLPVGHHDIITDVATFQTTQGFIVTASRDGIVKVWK
UniProt P06241: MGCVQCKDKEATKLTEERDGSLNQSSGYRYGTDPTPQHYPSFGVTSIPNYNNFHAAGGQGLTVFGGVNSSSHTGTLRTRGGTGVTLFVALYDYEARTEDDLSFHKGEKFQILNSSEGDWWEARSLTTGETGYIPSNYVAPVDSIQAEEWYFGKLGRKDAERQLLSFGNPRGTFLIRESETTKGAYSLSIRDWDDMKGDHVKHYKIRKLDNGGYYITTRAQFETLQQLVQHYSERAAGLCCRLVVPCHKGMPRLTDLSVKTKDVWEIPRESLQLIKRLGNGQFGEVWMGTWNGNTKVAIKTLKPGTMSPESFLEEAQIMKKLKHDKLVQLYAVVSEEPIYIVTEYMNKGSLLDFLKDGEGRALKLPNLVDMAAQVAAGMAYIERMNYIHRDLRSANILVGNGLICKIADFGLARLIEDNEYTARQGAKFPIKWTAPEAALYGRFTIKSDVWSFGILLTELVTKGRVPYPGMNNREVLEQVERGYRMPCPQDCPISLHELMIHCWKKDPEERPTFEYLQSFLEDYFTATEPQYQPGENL
UniProt P05556: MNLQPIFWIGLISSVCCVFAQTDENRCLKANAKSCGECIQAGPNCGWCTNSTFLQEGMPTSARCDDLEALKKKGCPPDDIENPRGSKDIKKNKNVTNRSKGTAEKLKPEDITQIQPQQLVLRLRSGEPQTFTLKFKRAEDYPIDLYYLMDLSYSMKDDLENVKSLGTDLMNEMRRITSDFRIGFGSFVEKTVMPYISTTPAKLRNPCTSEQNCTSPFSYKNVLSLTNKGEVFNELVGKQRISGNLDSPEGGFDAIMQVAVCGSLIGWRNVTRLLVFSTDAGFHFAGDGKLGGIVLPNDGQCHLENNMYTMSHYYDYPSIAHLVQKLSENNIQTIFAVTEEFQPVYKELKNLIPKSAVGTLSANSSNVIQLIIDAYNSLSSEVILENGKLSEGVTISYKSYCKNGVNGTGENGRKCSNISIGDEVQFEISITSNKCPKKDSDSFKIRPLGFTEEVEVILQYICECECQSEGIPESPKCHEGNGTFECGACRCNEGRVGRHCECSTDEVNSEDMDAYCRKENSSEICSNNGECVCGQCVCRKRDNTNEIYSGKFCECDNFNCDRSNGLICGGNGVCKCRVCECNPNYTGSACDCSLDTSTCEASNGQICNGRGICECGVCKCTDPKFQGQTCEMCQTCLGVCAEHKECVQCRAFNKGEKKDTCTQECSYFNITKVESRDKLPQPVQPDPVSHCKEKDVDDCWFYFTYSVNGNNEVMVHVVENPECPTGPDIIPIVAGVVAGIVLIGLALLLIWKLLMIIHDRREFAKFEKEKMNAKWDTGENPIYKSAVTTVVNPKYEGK

T1: HA–MERTK (MERTK with an extracellular HA tag) (human) (UniProt Q12866)
T1 sequence: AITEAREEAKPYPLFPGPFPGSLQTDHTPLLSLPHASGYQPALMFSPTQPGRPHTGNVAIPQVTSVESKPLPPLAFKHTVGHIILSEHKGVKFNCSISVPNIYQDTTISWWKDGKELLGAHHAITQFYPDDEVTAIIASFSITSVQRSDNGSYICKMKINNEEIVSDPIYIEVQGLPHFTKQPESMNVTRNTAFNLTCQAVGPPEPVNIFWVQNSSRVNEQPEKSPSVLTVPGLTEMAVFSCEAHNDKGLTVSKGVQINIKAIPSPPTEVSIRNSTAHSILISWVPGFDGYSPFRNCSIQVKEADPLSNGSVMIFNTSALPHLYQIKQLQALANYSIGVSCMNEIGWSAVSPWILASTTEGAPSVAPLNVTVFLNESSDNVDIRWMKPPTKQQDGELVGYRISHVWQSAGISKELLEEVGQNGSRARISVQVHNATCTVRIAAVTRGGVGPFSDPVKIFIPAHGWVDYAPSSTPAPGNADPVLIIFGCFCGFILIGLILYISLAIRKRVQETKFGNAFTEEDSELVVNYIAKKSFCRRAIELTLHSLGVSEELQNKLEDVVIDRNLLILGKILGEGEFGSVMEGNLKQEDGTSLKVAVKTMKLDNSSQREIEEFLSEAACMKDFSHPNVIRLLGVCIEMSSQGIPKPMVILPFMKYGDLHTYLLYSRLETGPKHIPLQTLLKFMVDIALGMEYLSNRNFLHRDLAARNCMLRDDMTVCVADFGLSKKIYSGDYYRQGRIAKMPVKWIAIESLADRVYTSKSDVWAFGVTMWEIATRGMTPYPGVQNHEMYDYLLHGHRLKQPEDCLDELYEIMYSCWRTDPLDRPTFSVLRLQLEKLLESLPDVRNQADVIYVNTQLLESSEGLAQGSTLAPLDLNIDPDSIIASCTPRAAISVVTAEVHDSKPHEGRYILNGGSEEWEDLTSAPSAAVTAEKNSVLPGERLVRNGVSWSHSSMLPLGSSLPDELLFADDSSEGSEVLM

B1: PIP4K2B (enzyme, UniProt P78356 1-416)
chain: MSSNCTSTTAVAVAPLSASKTKTKKKHFVCQKVKLFRASEPILSVLMWGVNHTINELSNVPVPVMLMPDDFKAYSKIKVDNHLFNKENLPSRFKFKEYCPMVFRNLRERFGIDDQDYQNSVTRSAPINSDSQGRCGTRFLTTYDRRFVIKTVSSEDVAEMHNILKKYHQFIVECHGNTLLPQFLGMYRLTVDGVETYMVVTRNVFSHRLTVHRKYDLKGSTVAREASDKEKAKDLPTFKDNDFLNEGQKLHVGEESKKNFLEKLKRDVEFLAQLKIMDYSLLVGIHDVDRAEQEEMEVEERAEDEECENDGVGGNLLCSYGTPPDSPGNLLSFPRFFGPGEFDPSVDVYAMKSHESSPKKEVYFMAIIDILTPYDTKKKAAHAAKTVKHGAGAEISTVNPEQYSKRFNEFMSNILT
B2: PI42C (enzyme, UniProt Q8TBX8 1-421)
chain: MASSSVPPATVSAATAGPGPGFGFASKTKKKHFVQQKVKVFRAADPLVGVFLWGVAHSINELSQVPPPVMLLPDDFKASSKIKVNNHLFHRENLPSHFKFKEYCPQVFRNLRDRFGIDDQDYLVSLTRNPPSESEGSDGRFLISYDRTLVIKEVSSEDIADMHSNLSNYHQYIVKCHGNTLLPQFLGMYRVSVDNEDSYMLVMRNMFSHRLPVHRKYDLKGSLVSREASDKEKVKELPTLKDMDFLNKNQKVYIGEEEKKIFLEKLKRDVEFLVQLKIMDYSLLLGIHDIIRGSEPEEEAPVREDESEVDGDCSLTGPPALVGSYGTSPEGIGGYIHSHRPLGPGEFESFIDVYAIRSAEGAPQKEVYFMGLIDILTQYDAKKKAAHAAKTVKHGAGAEISTVHPEQYAKRFLDFITNIFA
B3: RASA2 (protein, UniProt Q15283 1-850)
chain: MAAAAPAAAAASSEAPAASATAEPEAGDQDSREVRVLQSLRGKICEAKNLLPYLGPHKMRDCFCTINLDQEEVYRTQVVEKSLSPFFSEEFYFEIPRTFQYLSFYVYDKNVLQRDLRIGKVAIKKEDLCNHSGKETWFSLQPVDSNSEVQGKVHLELKLNELITENGTVCQQLVVHIKACHGLPLINGQSCDPYATVSLVGPSRNDQKKTKVKKKTSNPQFNEIFYFEVTRSSSYTRKSQFQVEEEDIEKLEIRIDLWNNGNLVQDVFLGEIKVPVNVLRTDSSHQAWYLLQPRDNGNKSSKTDDLGSLRLNICYTEDYVLPSEYYGPLKTLLLKSPDVQPISASAAYILSEICRDKNDAVLPLVRLLLHHDKLVPFATAVAELDLKDTQDANTIFRGNSLATRCLDEMMKIVGGHYLKVTLKPILDEICDSSKSCEIDPIKLKEGDNVENNKENLRYYVDKLFNTIVKSSMSCPTVMCDIFYSLRQMATQRFPNDPHVQYSAVSSFVFLRFFAVAVVSPHTFHLRPHHPDAQTIRTLTLISKTIQTLGSWGSLSKSKSSFKETFMCEFFKMFQEEGYIIAVKKFLDEISSTETKESSGTSEPVHLKEGEMYKRAQGRTRIGKKNFKKRWFCLTSRELTYHKQPGSKDAIYTIPVKNILAVEKLEESSFNKKNMFQVIHTEKPLYVQANNCVEANEWIDVLCRVSRCNQNRLSFYHPSVYLNGNWLCCQETGENTLGCKPCTAGVPADIQIDIDEDRETERIYSLFTLSLLKLQKMEEACGTIAVYQGPQKEPDDYSNFVIEDSVTTFKTIQQIKSIIEKLDEPHEKYRKKRSSSAKYGSKENPIVGKAS
B4: RhoE (protein, UniProt P61587 1-244)
chain: MKERRASQKLSSKSIMDPNQNVKCKIVVVGDSQCGKTALLHVFAKDCFPENYVPTVFENYTASFEIDTQRIELSLWDTSGSPYYDNVRPLSYPDSDAVLICFDISRPETLDSVLKKWKGEIQEFCPNTKMLLVGCKSDLRTDVSTLVELSNHRQTPVSYDQGANMAKQIGAATYIECSALQSENSVRDIFHVATLACVNKTNKNVKRNKSQRATKRISHMPSRPELSAVATDLRKDKAKSCTVM

Key:
[1] = target: T1, HA–MERTK (MERTK with an extracellular HA tag) (human); assay: affinity purification with mass spectrometry; resting HA–MERTK-expressing cells reversibly cross-linked (ReCLIP: 0.5 mM DSP and 1.0 mM DTME, 20 min, room temperature), lysed in RIPA buffer; anti-HA with Protein A/G beads against an isotype control, 4°C; bands unique to the anti-HA lane cut from SDS-PAGE, trypsin, AB Sciex 5800 TOF/TOF, MASCOT; only proteins present in three independent experiments
[2] = target: T1, HA–MERTK (MERTK with an extracellular HA tag) (human); assay: as above; remark: listed apart in the source

| Molecule | binding [1] | binding [2] |
| --- | --- | --- |
| Fgr (from UniProt P09769 1-529) (enzyme) | binds |  |
| ARHGAP9 (from UniProt Q9BRR9 1-750) | binds |  |
| MAP4K4 (from UniProt O95819 1-1239) (enzyme) | binds |  |
| IQGAP1 (from UniProt P46940 1-1657) | binds |  |
| Grb2 (from UniProt P62993 1-217) | no binding |  |
| PI3R4 (from UniProt Q99570 1-1358) | binds |  |
| Fyn (from UniProt P06241 1-537) (enzyme) | binds |  |
| β1 integrin (from UniProt P05556 21-798) (receptor) | binds |  |
| AKAP9 (from UniProt Q99996 1-3907) | binds |  |
| Erc1 (from UniProt Q8IUD2 1-1116) | binds |  |
| ILK (from UniProt Q13418 1-452) | binds |  |
| B1 |  | binds |
| B2 |  | binds |
| B3 |  | binds |
| B4 |  | binds |

Like-named read-outs stand apart in the source and are kept apart here. These are yes or no findings as the source states them, for the method shown. Binding seen in cells or lysates may run through a third protein. Here binding means that the protein was enriched with, or labelled near, the bait; the list need not be complete. For part of these data: A no says only that the protein was not detected with the bait. Tags and fused reporters may be left off the sequences shown.
